Primary screen of a compound library

Chains of the proteins cited; added tags and fusions are not shown.
UniProt I6X8D2, whole entry: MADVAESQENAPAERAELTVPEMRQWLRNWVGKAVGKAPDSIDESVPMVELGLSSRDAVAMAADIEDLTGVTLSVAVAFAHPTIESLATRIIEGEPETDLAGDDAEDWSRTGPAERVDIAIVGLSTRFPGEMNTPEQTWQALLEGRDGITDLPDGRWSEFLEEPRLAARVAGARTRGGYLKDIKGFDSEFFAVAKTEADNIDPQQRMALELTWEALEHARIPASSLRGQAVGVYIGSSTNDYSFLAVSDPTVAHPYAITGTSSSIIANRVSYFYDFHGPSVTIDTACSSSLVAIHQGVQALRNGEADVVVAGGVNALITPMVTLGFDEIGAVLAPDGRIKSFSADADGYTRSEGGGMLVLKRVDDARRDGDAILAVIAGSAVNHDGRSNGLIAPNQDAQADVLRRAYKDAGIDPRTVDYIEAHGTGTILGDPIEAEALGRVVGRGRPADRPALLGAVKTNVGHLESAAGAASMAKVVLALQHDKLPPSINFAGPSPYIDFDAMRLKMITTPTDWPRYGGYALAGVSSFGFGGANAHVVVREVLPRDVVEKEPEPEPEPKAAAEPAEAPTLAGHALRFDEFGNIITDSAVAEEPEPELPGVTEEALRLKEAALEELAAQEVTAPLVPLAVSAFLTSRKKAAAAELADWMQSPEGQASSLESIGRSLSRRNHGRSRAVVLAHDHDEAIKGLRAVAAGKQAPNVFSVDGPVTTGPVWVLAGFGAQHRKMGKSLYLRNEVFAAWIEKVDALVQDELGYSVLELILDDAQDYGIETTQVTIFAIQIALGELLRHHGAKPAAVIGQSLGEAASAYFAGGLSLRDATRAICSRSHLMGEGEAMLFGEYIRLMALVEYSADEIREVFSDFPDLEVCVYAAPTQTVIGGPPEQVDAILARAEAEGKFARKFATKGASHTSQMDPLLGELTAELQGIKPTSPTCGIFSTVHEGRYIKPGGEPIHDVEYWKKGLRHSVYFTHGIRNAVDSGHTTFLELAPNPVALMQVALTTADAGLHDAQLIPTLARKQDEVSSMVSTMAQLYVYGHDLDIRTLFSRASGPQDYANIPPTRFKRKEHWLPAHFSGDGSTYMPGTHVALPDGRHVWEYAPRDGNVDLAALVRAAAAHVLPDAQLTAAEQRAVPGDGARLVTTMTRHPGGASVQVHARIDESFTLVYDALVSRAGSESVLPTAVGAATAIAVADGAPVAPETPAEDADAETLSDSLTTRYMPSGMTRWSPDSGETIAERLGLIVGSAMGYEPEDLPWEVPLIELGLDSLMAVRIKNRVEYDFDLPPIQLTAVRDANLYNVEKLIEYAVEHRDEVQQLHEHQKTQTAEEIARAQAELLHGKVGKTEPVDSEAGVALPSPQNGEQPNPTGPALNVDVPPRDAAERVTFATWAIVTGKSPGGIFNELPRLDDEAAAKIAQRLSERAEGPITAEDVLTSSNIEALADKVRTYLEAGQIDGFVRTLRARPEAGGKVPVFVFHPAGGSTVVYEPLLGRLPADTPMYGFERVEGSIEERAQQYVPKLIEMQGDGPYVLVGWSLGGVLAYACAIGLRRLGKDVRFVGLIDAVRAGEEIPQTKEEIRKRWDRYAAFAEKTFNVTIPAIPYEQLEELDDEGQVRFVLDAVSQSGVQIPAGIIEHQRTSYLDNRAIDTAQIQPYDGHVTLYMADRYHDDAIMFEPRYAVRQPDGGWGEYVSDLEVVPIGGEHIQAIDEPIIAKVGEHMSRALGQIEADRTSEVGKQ

Measurements from “University of Dundee, Small-Polar-MMV Screening Library” (2021), ChEMBL document CHEMBL3988442.

Results are given as percent effect. How 0% and 100% were set is not recorded. Most values in the screen are low, and negative values occur. Compounds were drawn at random from those tested, without regard to their results.

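Polyketide synthase Pks13, Mycobacterium tuberculosis (UniProt I6X8D2). Enzyme assay of the thioesterase domain of polyketide synthase 13; the read-out is not stated. Compounds at 30 µM. Higher reads as stronger inhibition (inferred from which compounds were picked for retests). Size under these conditions: about 67,000 compounds, about 300 of them at 50% or above in at least one test.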

SMILES	Percent Effect
CNCC(=O)Nc1ccc(-c2cnc(NCCS(C)(=O)=O)nc2)cc1	8.547%
O=S(=O)(NC(CO)Cc1c[nH]c2ccccc12)c1cncc(F)c1 (centres undefined)	-27.16%
Cc1ccc(S(=O)(=O)N2C[C@H]3C[C@H](NC(=O)c4cc[nH]n4)[C@H]3C2)cc1	-21.6%
O=c1[nH]nc2c(N3CCC(NC4CCOCC4)CC3)nccn12	-6.904%
CCOCC1CN(Cc2ccc(OC)cc2)Cc2nn(C)cc21 (centres undefined)	-11.98%
CS(=O)(=O)N1CCc2[nH]nc(Cc3cccs3)c2C1	-2.851%
O=C(CCC1CCCC1)N1C[C@H]2CC[C@@H]1CN(Cc1ccncc1)C2	2.508%
Cn1cc(CN2CCCC(CCc3ccccc3C(F)(F)F)C2)cn1 (centres undefined)	-19.33%
OC1CCN(C2CCN(Cc3cnc(-c4cccs4)nc3)CC2)CC1	-1.463%
COc1cc(OC)cc(N2CCC(NC(=O)c3cccn3C)CC2)c1	6.901%
Cc1ccc2c(n1)N(C)CCN(Cc1ccco1)C2	-33.98%
COCC(=O)N1CCCC2(CCN(c3ccsc3)C2=O)C1 (centres undefined)	-34.45%
CC(C)N1CC(c2ccnc(Nc3nccs3)n2)C1	-6.627%
CCc1c(C(=O)N2CC(C)OC(C)(C)C2)cnn1-c1ccccn1 (centres undefined)	-18.21%
CCOc1cc(F)ccc1NC(=O)NCC(c1cnn(C)c1)N(C)C (centres undefined)	-6.179%
NC(=O)C1CCN(Cn2nc(-c3ccc(F)cc3)oc2=O)C1 (centres undefined)	-17.73%
O=C(c1ccno1)N1CCC2(CC1)C(=O)N(CC1CC1)c1ccccc12	-9.962%
CC(C)NC(=O)N(C)C(c1cccc(F)c1)c1ccccn1 (centres undefined)	-17.08%
CCn1nc(C)c2ncnc(NCCCN3CCOCC3)c21	-19.83%
Cc1ccc(CCC(=O)N2CCC(Nc3cccnn3)CC2)cc1	-14.31%
O=C(C1CC1)N1CCC[C@]2(C[C@@H](OCc3ccncc3)CO2)C1	4.18%
c1cncc(CN2CCCCC2c2ccc(Nc3cnccn3)nc2)c1 (centres undefined)	36.04%
Cc1cc(CN(C)C(=O)NCc2cccc(N3CCCC3=O)c2)no1	-18.04%
CC(=O)N1CCN([C@@H]2CC[C@@H](NC(=O)c3cncc(C)c3)[C@H]2O)CC1	-39.37%
CS(=O)(=O)N1CCC(c2cncc(Cl)n2)CC1	-17.46%
Cc1ccc(S(=O)(=O)NC(=O)COc2cccc(C#N)c2)c(C)c1	3.321%
CC(C)=CCC/C(C)=C/CN1CCN(C)C2(CCNC(=O)CC2)C1 (centres undefined)	-33.32%
Cc1nc(N[C@H]2COC[C@@H]2N2CCCCC2)c2c(C)nn(C)c2n1	-27.98%
CC(C)CCC(=O)NC(C)c1nnc2n1CCCCC2 (centres undefined)	-2.748%
COCCC(=O)N1CCN(CC2CC2)c2ncccc2C1	-30.97%
Cc1ccc2cc(C(=O)N3CCCC3Cn3cccn3)[nH]c2c1 (centres undefined)	-10.74%
Cc1c(-c2ccccc2)ncn1CC(c1cccnc1)N1CCOCC1 (centres undefined)	-32.76%
Cc1ccccc1C(=O)N1C[C@@H]2C[C@@H](C)O[C@@H]2C1	-35.63%
Cc1cc(C)n(CCN2CCN(C(=O)c3ccc(Br)o3)CC2)n1	-36.01%
Cc1c[nH]c(C2CCCN2C(=O)CCc2c(C)n[nH]c2C)n1 (centres undefined)	11.82%
Cc1nc(C)n(CC2CCCN(Cc3nnc(C4CC4)o3)C2)n1 (centres undefined)	-4.318%
Cc1nccn1-c1nccnc1C1CCN(Cc2ccc(F)cc2)CC1	-14.1%
CCC1CN(C(=O)NCCOc2ccc3c(c2)OCO3)CCO1 (centres undefined)	-4.95%
Cc1ccc(C)c(OCC(O)CN(C)CC(=O)Nc2cc(C)on2)c1 (centres undefined)	-39.64%
CCc1noc(C)c1C(=O)N1CCCC1c1c(C)nn(C)c1OC (centres undefined)	-33.82%
CC(C)(CNC(=O)C1CCCCN1S(C)(=O)=O)N1CCOCC1 (centres undefined)	-38.98%
Cc1ncc2c(n1)CCCC2NC(=O)c1cnn(Cc2ccccc2)c1 (centres undefined)	-17.2%
COc1cccc(CNc2cc(C)nc(-c3ccncc3)n2)c1OC	-14.93%
O=C(CCCNCc1ccccc1)N1CCCn2cncc2C1	-39.4%
Cc1csc(CCNC(=O)N2CCC(C(N)=O)CC2)n1	-27.1%
CC(C)N1CCCC2(CCN(C(=O)CCCn3ccnc3)C2)C1=O (centres undefined)	-33.79%
COc1cc(C(=O)N2CCCS2(=O)=O)cc(Cl)c1OC	-14.03%
CCCc1n[nH]c(C2CN(CCS(=O)(=O)CC)CCO2)n1 (centres undefined)	-13.97%
NC(=O)c1nc(COc2ccc3c(c2)OCO3)no1	-13.48%
Cn1ccnc1SCC(=O)NCc1ccc2c(c1)CCC(=O)N2	-4.286%
C[C@@H]1CN(C(=O)C2(N3CCCCC3)Cc3ccccc3C2)C[C@H](C)O1	-29.67%
Cc1nc(C)n(CC2CCCN2Cc2nc(-c3ccsc3)no2)n1 (centres undefined)	-31.99%
CC(C)c1noc(CCC(=O)NCC2CC2)n1	-9.615%
OCC1CCCN1c1cc(NCc2cccs2)ncn1 (centres undefined)	-25.6%
c1cc2ccc(N3CCN(Cc4ccc5c(c4)OCO5)CC3)nc2[nH]1	-22.79%
CCc1nnc2n1CCN(C(=O)C(C)Oc1ccc(C#N)cc1)C2 (centres undefined)	-28.68%
CCOc1ccc(S(=O)(=O)NCc2cccnc2N(C)C)cc1	-28.41%
CN(Cc1nnc2n1CCC2)C(=O)Cc1ccc2c(c1)OCCO2	-10.52%
Cn1ccnc1CN1CCC2(CC1)CN(Cc1ccccc1)C(=O)CO2	-13.94%
CNC(=O)CN1CCC(c2cc(OC)cc(OC)c2)C1 (centres undefined)	9.859%
c1nc2n(c1CN1CCCC1)CCN(C1CCOCC1)CC2	-15.73%
CN(C)C(C(=O)N1CCN(C(=O)c2ccc[nH]2)CC1)c1ccc(F)cc1 (centres undefined)	-0.7272%
CN(Cc1nccn1C)S(=O)(=O)c1cccc(C#N)c1	-32.22%
CN(Cc1ccc(CCC(C)(C)O)cc1)Cc1cccc(O)c1	-26.91%
CN(Cc1cnc(N)nc1)C(=O)c1coc(COc2cccc(F)c2)n1	-15.59%
O=C(C1CC(=O)N(c2n[nH]c3cc(Br)ccc23)C1)N1CCOCC1 (centres undefined)	-14.81%